Experimental data taken from US20230346948A1, “Lipid conjugated peptide inhibitors of PICK1” (University of Copenhagen, priority 2020, published 2023).
Entries after “also recorded” stand apart in the source; their conditions may differ. Part of at least one peptide drawing is inferred or uncertain, most often the ends.

Test system: neuropathic pain (SNI model)
Assay: Spared Nerve Injury (SNI) model of neuropathic pain, von Frey
Type: in vivo, mice
Conditions: s.c. 10 μmol/kg, day 9 after SNI; tested 1-6 h
Method: Neuropathic pain. The SNI pain experiment was performed by Phenotype Expertise-Pain and CNS behaviour CRO under supervision of […]). Study was performed on 8 weeks old […] male mice (Charles River). The spared nerve injury surgery was performed on anaesthetized mice. Ligature and transection of the common peroneal and tibial distal branches of the sciatic nerve was performed, leaving the sural branch intact. […] The experimenter was blinded to mice treatment. […] All the compounds were diluted in PBS and administered s.c. at 10 μL/g. Statistical analysis was performed using GraphPad Prism 6.0. Two-way RM ANOVA followed by Bonferroni's post-hoc test. Significance level set to p<0.05. Neuropathic pain. Study was performed on 8 weeks old […] male mice (Charles River). The spared nerve injury surgery was performed on anaesthetized mice. Ligature and transection of the common peroneal and tibial distal branches of the sciatic nerve was performed, leaving the sural branch intact. […] The experimenter was blinded to mice treatment. […] All the compounds were diluted in PBS and administered 10 μmol/kg (10 μL/gram) […]. at 10 μL/g. Statistical analysis was performed using GraphPad Prism 6.0. Two-way RM ANOVA followed by Bonferroni's post-hoc test. Significance level set to p<0.05. Neuropathic pain. […] After injection, mechanical threshold was measured, 2 and 5 hrs. […]

`CC(C)C[C@H](NC(=O)[C@H](Cc1c[nH]c2ccccc12)NC(=O)[C@H](Cc1c[nH]cn1)NC(=O)CCOCCOCCNCCOCCOCCC(=O)N[C@@H](Cc1c[nH]cn1)C(=O)N[C@@H](Cc1c[nH]c2ccccc12)C(=O)N[C@@H](CC(C)C)C(=O)N[C@@H](CCCCN)C(=O)N[C@H](C(=O)O)C(C)C)C(=O)N[C@@H](CCCCN)C(=O)N[C@H](C(=O)O)C(C)C` [NPEG4-(HWLKV)2, reference compound] was tested, and the “relief of evoked pain (paw withdrawal threshold)” value was “no significant effect; also recorded: does not elicit a significant increase in pain withdrawal threshold”.
